Results as given in the supplement of paper PMC10849652.
The list shows a part of the results.

Sequences of proteins named here, by UniProt entry; tags and fusion partners are left off. A change or cut given only in a name is not applied to a line headed by its entry.
UniProt Q2TAZ0: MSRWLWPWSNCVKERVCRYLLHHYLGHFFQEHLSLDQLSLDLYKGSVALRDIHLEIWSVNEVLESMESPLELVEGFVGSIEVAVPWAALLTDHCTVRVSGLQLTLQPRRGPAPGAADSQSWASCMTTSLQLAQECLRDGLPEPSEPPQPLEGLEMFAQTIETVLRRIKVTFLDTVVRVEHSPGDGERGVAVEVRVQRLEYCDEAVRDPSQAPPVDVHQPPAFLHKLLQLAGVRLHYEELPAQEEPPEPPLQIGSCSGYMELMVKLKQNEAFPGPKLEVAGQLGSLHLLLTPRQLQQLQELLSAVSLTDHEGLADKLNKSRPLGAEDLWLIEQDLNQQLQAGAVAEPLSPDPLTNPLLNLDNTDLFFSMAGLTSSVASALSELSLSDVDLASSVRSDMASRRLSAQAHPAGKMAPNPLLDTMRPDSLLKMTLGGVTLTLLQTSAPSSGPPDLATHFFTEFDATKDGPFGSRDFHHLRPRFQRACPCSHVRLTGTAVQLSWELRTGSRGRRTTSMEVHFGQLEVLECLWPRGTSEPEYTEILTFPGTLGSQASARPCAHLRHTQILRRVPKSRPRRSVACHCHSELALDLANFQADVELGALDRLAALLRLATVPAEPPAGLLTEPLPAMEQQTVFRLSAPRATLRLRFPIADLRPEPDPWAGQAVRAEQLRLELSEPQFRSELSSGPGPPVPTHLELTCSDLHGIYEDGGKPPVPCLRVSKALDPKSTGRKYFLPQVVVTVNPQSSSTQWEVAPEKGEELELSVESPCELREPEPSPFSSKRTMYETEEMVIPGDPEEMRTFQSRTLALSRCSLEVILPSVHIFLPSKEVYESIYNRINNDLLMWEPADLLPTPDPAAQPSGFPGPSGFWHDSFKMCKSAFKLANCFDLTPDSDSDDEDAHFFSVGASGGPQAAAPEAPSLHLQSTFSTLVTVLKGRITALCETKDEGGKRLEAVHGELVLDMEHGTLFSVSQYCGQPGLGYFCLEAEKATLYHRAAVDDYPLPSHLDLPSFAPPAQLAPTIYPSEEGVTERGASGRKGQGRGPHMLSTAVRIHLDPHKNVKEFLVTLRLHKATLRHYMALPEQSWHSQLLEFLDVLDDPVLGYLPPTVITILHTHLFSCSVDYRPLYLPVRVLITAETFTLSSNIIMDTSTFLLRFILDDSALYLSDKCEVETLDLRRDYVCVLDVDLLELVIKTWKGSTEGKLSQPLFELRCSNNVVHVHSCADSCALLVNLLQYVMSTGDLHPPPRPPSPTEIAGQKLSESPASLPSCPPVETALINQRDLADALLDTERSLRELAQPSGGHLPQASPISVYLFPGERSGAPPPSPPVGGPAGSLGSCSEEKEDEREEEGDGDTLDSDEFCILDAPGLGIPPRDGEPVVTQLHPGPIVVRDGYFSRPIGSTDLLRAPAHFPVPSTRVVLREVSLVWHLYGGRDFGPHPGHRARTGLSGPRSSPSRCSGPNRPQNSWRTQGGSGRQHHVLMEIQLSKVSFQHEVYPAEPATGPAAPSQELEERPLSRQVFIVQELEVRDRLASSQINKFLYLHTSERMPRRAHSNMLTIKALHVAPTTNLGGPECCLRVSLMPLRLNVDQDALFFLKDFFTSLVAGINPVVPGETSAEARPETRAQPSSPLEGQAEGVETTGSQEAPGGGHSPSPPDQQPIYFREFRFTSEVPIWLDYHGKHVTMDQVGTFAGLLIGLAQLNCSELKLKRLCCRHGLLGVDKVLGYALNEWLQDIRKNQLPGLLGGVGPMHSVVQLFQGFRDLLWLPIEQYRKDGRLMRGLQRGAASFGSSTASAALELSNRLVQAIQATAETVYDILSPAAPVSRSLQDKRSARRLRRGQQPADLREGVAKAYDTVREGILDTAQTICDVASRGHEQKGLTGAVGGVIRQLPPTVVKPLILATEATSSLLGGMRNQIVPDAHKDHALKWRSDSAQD
UniProt Q9NXU5: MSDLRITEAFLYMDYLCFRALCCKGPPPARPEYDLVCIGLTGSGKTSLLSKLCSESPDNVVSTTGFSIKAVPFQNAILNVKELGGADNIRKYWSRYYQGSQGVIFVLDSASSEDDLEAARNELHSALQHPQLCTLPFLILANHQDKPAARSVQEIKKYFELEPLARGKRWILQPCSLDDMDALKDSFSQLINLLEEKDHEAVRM
UniProt Q9Y5K8, whole entry, looked up: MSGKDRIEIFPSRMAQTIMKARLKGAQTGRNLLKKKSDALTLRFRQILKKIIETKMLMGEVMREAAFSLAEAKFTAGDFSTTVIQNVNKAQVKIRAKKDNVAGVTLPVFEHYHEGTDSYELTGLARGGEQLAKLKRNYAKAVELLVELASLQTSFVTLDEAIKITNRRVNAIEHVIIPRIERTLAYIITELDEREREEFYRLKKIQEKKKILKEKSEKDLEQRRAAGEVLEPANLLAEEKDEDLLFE
UniProt Q13510, whole entry, looked up: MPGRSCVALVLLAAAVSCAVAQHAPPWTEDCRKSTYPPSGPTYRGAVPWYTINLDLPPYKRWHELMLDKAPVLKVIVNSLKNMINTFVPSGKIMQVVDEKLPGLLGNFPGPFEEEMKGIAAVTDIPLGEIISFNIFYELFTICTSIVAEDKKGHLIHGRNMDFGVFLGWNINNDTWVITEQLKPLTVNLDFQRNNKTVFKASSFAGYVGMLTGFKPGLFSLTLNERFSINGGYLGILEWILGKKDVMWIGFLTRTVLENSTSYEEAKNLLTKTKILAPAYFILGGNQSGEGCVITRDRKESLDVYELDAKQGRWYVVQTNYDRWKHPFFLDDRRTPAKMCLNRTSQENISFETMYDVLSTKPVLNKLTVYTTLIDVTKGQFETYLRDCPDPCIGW
UniProt Q8N5M1: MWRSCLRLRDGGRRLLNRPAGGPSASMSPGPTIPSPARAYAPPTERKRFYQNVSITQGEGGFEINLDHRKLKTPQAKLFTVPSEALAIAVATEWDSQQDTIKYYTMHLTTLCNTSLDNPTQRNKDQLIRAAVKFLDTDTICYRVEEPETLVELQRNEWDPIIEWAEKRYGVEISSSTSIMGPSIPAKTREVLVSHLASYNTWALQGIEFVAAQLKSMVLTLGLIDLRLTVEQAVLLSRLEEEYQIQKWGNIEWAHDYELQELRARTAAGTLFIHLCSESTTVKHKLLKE
UniProt P56381: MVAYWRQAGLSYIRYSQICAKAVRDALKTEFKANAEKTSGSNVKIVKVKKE
UniProt Q96DT6: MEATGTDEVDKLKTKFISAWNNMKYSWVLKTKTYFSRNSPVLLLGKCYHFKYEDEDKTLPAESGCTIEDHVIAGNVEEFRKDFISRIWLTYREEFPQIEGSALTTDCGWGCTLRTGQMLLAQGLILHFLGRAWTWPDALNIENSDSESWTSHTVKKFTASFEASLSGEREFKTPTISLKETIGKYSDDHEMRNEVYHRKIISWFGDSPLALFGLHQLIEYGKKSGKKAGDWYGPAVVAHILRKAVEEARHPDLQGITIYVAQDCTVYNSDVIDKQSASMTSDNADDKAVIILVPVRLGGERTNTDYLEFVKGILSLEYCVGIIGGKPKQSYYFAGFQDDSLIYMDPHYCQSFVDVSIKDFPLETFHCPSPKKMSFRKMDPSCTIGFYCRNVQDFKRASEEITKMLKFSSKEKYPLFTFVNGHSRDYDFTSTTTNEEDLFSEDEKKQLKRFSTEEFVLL
UniProt P49407: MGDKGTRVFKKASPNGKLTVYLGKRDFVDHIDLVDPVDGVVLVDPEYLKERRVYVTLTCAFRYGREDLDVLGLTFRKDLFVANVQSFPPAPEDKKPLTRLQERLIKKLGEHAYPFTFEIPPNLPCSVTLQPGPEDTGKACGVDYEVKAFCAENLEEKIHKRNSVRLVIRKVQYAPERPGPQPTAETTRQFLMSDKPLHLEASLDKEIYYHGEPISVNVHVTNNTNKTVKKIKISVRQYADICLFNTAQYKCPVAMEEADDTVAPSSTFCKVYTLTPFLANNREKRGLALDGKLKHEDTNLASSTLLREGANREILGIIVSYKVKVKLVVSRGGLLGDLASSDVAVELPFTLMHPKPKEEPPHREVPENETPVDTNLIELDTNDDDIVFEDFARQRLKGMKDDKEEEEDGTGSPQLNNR
UniProt O95260: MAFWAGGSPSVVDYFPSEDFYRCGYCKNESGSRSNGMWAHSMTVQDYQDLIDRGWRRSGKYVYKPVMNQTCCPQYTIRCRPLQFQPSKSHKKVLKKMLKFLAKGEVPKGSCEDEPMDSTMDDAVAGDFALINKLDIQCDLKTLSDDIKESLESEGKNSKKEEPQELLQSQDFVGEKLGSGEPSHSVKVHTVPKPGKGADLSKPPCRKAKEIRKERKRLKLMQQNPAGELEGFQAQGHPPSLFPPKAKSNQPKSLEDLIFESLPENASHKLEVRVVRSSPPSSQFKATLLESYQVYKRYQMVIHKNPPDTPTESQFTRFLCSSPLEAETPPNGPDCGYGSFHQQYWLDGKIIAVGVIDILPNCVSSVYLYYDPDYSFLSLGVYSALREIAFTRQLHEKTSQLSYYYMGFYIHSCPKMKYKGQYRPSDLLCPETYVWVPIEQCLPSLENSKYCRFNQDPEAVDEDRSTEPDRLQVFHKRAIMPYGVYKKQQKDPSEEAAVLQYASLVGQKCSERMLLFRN
UniProt Q96BY7: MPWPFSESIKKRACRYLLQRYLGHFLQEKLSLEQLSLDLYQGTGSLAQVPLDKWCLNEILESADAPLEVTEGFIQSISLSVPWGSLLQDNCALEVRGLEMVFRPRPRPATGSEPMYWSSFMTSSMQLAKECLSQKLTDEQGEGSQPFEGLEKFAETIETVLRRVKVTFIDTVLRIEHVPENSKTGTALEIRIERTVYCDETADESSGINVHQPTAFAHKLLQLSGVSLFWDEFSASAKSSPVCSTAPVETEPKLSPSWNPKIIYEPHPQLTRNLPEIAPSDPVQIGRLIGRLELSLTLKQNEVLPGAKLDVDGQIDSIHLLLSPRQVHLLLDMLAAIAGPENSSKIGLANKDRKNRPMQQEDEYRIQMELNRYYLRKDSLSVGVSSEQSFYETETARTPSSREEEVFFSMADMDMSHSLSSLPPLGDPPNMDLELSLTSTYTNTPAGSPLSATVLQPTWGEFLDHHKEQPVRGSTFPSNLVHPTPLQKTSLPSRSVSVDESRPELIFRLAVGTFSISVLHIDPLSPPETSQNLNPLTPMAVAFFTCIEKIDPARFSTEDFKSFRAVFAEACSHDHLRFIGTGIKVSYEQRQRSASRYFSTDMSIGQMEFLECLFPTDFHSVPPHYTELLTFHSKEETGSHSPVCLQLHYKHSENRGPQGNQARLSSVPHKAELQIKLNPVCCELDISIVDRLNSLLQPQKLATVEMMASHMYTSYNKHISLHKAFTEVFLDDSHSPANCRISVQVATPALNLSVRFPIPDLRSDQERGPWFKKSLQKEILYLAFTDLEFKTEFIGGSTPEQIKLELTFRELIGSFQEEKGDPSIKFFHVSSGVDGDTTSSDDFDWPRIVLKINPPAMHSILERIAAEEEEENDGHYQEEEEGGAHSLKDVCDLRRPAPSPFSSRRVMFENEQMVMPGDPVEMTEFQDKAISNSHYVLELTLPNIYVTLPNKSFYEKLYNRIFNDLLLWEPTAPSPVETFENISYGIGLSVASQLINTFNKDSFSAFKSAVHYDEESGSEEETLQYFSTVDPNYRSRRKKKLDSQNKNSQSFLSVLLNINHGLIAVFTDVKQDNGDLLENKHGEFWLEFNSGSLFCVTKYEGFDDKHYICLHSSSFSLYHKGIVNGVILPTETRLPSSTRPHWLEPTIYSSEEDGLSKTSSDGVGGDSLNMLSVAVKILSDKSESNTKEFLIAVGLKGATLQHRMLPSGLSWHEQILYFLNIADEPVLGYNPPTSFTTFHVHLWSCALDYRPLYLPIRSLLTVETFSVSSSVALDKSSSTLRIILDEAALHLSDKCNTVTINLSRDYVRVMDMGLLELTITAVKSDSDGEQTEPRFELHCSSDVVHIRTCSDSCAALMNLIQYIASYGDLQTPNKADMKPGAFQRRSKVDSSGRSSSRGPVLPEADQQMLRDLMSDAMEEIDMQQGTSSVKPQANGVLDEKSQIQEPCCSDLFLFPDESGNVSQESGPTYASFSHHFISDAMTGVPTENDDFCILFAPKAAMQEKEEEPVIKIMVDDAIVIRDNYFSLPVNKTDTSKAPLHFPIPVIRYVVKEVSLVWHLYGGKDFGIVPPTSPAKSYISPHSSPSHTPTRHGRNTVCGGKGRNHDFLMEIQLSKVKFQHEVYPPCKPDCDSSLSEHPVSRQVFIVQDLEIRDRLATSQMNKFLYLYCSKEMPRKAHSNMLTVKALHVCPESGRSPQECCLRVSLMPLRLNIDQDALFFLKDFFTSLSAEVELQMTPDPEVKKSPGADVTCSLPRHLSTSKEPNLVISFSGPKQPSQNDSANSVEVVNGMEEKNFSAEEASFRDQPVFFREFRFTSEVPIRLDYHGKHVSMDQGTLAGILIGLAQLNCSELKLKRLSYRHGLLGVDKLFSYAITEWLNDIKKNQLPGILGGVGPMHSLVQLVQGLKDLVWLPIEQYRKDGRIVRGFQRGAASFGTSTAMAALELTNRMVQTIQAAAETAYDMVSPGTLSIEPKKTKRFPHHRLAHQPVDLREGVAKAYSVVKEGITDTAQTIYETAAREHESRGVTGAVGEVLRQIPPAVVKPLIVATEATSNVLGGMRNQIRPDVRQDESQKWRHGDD

Assays:
Test in all cases: log2 fold change, soluble protein after heating vs DMSO (PISA); higher = thermal stabilisation; K562 cells, 10 uM, 30 min; active = over 0.2 and 3.5 SD of the protein, either way, in both replicates (recomputed)
[1] = compound: CN1CCN(CCOc2cc(OC3CCOCC3)c3c(Nc4c(Cl)ccc5c4OCO5)ncnc3c2)CC1 [saracatinib]
Outline: (§1)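 Values are thermal stability changes relative to control samples and are taken from duplicates. They are stated as log2 fold changes. Before quantification by TMTpro 16plex LC-MS/MS with equalised channel sums, K562 cells at 2×10^6 cells/mL were treated with 10 μM compound for 30 min, heated in aliquots for 3 min across 48°C-58°C, pooled, extracted in PBS with 0.5% NP-40 at 4°C, and centrifuged at 21,000xg for 90 min to give the soluble supernatant.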

[2] = compound: CN1CCN(c2nc(C3=C(c4c[nH]c5ccccc45)C(=O)NC3=O)c3ccccc3n2)CC1 [sotrastaurin]
Outline: as §1

[3] = compound: CN1CC[C@H](c2c(O)cc(O)c3c(=O)cc(-c4ccccc4Cl)oc23)[C@H](O)C1 [alvocidib]
Outline: as §1

[4] = compound: CN1CCc2c(c3ccccc3n2Cc2ccc(C(=O)NO)cc2)C1 [Tubastatin A]
Outline: as §1

[5] = compound: CNC(=O)C1=CC=CC=C1NC2=NC(=NC=C2Cl)NC3=C(C=C(C=C3)N4CCOCC4)OC
Outline: as §1

[6] = compound: CNC(=O)c1ccc(Nc2ncc(C(F)(F)F)c(NCc3nccnc3N(C)S(C)(=O)=O)n2)cc1 [defactinib]
Outline: as §1

[7] = compound: CNCc1ccc(-c2[nH]c3cc(F)cc4c3c2CCNC4=O)cc1 [rucaparib]
Outline: as §1

[8] = compound: CNc1nc(-c2ccc3c(N)n[nH]c3c2)cc(N2C[C@@H](C(=O)NC3CCCCC3)CC[C@H]2C)n1
Outline: as §1

[9] = compound: COC(=O)N[C@@H](C)CNc1nccc(-c2cn(C(C)C)nc2-c2cc(Cl)cc(NS(C)(=O)=O)c2F)n1 [encorafenib]
Outline: as §1

[10] = compound: COC(=O)[C@H](CCSC)NC(=O)C1=C(C=C(C=C1)NC[C@H](CS)N)C2=CC=CC=C2
Outline: as §1

Measured: log2 fold change

ATP5PO (UniProt P48047)
inactive: [1] 0.013 | [2] 0.023 | [3] 0.029 | [4] -0.023 | [5] 0.014 | [6] 0.014 | [7] 0.011 | [8] -0.037 | [9] -0.029 | [10] 0.028

ATG2A isoform 3 (UniProt Q2TAZ0)
inactive: [1] 0.065 | [2] 0.005 | [3] -0.044 | [4] -0.034 | [5] -0.05 | [6] -0.053 | [7] -0.034 | [8] -0.067 | [9] 0.053 | [10] -0.006

ARL15 (UniProt Q9NXU5)
inactive: [1] 0.011 | [2] -0.035 | [3] -0.117 | [4] 0.005 | [5] -0.089 | [6] -0.03 | [7] 0.084 | [8] -0.026 | [9] 0.009 | [10] -0.039

ASCC3 (UniProt Q8N3C0)
inactive: [1] -0.148 | [2] -0.167 | [3] 0.25 | [4] 0.142 | [5] 0.075 | [6] 0.168 | [7] 0.229 | [8] 0.09 | [9] -0.031 | [10] -0.015

ATP6V1D (UniProt Q9Y5K8)
inactive: [1] 0.014 | [2] 0.045 | [3] 0.028 | [4] -0.021 | [5] -0.05 | [6] -0.004 | [7] -0.009 | [8] 0.03 | [9] 0.018 | [10] 0.029

ARMCX3 (UniProt Q9UH62)
inactive: [1] -0.099 | [2] -0.159 | [3] -0.061 | [4] 0.135 | [5] -0.01 | [6] -0.037 | [7] 0.066 | [8] 0.055 | [9] 0.055 | [10] -0.051

ASAH1 isoform 2 (UniProt Q13510)
inactive: [1] -0.072 | [2] -0.027 | [3] 0.019 | [4] -0.008 | [5] 0.117 | [6] -0.031 | [7] 0.002 | [8] 0.005 | [9] -0.03 | [10] 0.035

ATP11C (UniProt Q8NB49)
inactive: [1] 0.018 | [2] -0.021 | [3] -0.014 | [4] -0.028 | [5] 0.002 | [6] -0.016 | [7] -0.016 | [8] 0.036 | [9] 0.005 | [10] 0.005

ATP6V1B2 (UniProt P21281)
inactive: [1] 0.003 | [2] 0.009 | [3] 0.029 | [4] 0.027 | [5] -0.056 | [6] 0.018 | [7] 0.036 | [8] -0.007 | [9] -0.001 | [10] 0.025

ATP6V1E1 (UniProt P36543)
inactive: [1] -0.092 | [2] 0.022 | [3] -0.036 | [4] 0.019 | [5] -0.03 | [6] -0.045 | [7] 0.013 | [8] 0.022 | [9] 0.01 | [10] -0.043

ATPAF1 (UniProt Q5TC12)
inactive: [1] 0.042 | [2] -0.009 | [3] -0.055 | [4] -0.019 | [5] -0.033 | [6] -0.094 | [7] 0.021 | [8] -0.08 | [9] -0.005 | [10] 0.01

ARRB2 isoform 4 (UniProt P32121)
inactive: [1] -0.07 | [2] -0.042 | [3] -0.029 | [4] -0.027 | [5] -0.018 | [6] -0.034 | [7] 0.003 | [8] -0.142 | [9] -0.011 | [10] -0.021

ATPAF2 (UniProt Q8N5M1)
inactive: [1] 0.039 | [2] 0.057 | [3] -0.038 | [4] -0.076 | [5] -0.035 | [6] -0.028 | [7] -0.025 | [8] 0.022 | [9] -0.041 | [10] -0.009

ATP5F1E (UniProt P56381)
inactive: [1] 0.067 | [2] 0.036 | [3] 0.081 | [4] -0.059 | [5] 0.046 | [6] 0.011 | [7] 0.007 | [8] -0.021 | [9] -0.036 | [10] 0.028

Reprinted at random: 2 records from the list.
ATP5F1E (UniProt P56381)
inactive: [1] 0.067 | [2] 0.036 | [3] 0.081 | [4] -0.059 | [5] 0.046 | [6] 0.011 | [7] 0.007 | [8] -0.021 | [9] -0.036 | [10] 0.028

ATPAF1 (UniProt Q5TC12)
inactive: [1] 0.042 | [2] -0.009 | [3] -0.055 | [4] -0.019 | [5] -0.033 | [6] -0.094 | [7] 0.021 | [8] -0.08 | [9] -0.005 | [10] 0.01

Next results follow:

ARMC1 (UniProt Q9NVT9)
inactive: [1] 0.034 | [2] -0.086 | [3] -0.039 | [4] 0.015 | [5] -0.013 | [6] -0.048 | [7] -0.033 | [8] -0.008 | [9] 0.053 | [10] -0.04

ATG4C (UniProt Q96DT6)
inactive: [1] 0.086 | [2] -0.093 | [3] -0.23 | [4] 0.046 | [5] 0.024 | [6] -0.103 | [7] -0.057 | [8] -0.014 | [9] 0.011 | [10] -0.057

ARPC5L (UniProt Q9BPX5)
inactive: [1] 0.065 | [2] -0.04 | [3] 0.02 | [4] -0.019 | [5] -0.012 | [6] -0.023 | [7] -0.004 | [8] -0.054 | [9] -0.001 | [10] 0.038

ATP5F1D (UniProt P30049)
inactive: [1] -0.005 | [2] 0.02 | [3] 0.033 | [4] 0.019 | [5] 0.006 | [6] -0.03 | [7] -0.069 | [8] -0.025 | [9] -0.011 | [10] 0

ARRB1 (UniProt P49407)
inactive: [1] 0.022 | [2] 0.02 | [3] -0.105 | [4] -0.02 | [5] -0.017 | [6] -0.073 | [7] -0.016 | [8] 0.006 | [9] 0.004 | [10] 0.002

ATE1 isoform 2 (UniProt O95260)
inactive: [1] 0.015 | [2] 0.063 | [3] -0.104 | [4] -0.052 | [5] 0.019 | [6] -0.099 | [7] -0.224 | [8] -0.043 | [9] 0.059 | [10] 0.029

ATN1 (UniProt P54259)
inactive: [1] 0.054 | [2] -0.132 | [3] 0.128 | [4] 0.046 | [5] -0.034 | [6] -0.033 | [7] 0.019 | [8] -0.01 | [9] 0.063 | [10] -0.008

ARIH2 (UniProt O95376)
inactive: [1] 0.034 | [2] -0.009 | [3] 0.028 | [4] -0.008 | [5] -0.013 | [6] -0.056 | [7] -0.047 | [8] 0.023 | [9] 0.018 | [10] 0.022

ARPC2 (UniProt O15144)
inactive: [1] 0.045 | [2] 0.032 | [3] 0.026 | [4] -0.018 | [5] 0.043 | [6] 0.015 | [7] -0.056 | [8] -0.061 | [9] -0.011 | [10] 0

ASDURF (UniProt L0R819)
inactive: [1] 0.03 | [2] 0.044 | [3] 0.05 | [4] -0.018 | [5] -0.042 | [6] 0.029 | [7] 0.051 | [8] 0.023 | [9] -0.072 | [10] 0.039

ATP2C1 isoform 7 (UniProt P98194)
inactive: [1] 0.018 | [2] 0.065 | [3] 0.037 | [4] -0.04 | [5] -0.006 | [6] -0.045 | [7] -0.042 | [8] -0.043 | [9] 0 | [10] 0.009

ATP5MF (UniProt P56134)
inactive: [1] 0.003 | [2] 0.038 | [3] -0.021 | [4] -0.053 | [5] -0.033 | [6] -0.014 | [7] 0.008 | [8] -0.06 | [9] -0.019 | [10] 0.003

ATG2B (UniProt Q96BY7)
inactive: [1] 0.003 | [2] 0.001 | [3] 0 | [4] -0.039 | [5] -0.008 | [6] -0.008 | [7] -0.028 | [8] -0.032 | [9] -0.018 | [10] 0.039
